What all share (experiment): pull-down; recombinant GST-Ana2 (or its fragments or mutants) on beads, incubated with active MBP-Plk4 or inactive MBP-Plk4^KD, then with ^35S-Met-labeled proteins made by in vitro transcription and translation; SDS-PAGE and autoradiography; only the target purified
Assay [1] has as its target GST-Ana2 treated with inactive Plk4 (MBP-Plk4^KD) (Drosophila) (UniProt Q9XZ31).
The target of assay [2] is Ana2 S318A mutant (Drosophila) (UniProt Q9XZ31).
The target in assay [3] is Ana2 S365A mutant (Drosophila) (UniProt Q9XZ31).
For assay [4], the target named is Ana2 S370A mutant (Drosophila) (UniProt Q9XZ31).
Assay [5] concerns the target Ana2 S373A mutant (Drosophila) (UniProt Q9XZ31).

Chains of the proteins cited; added tags and fusions are not shown. Lines headed by an entry give the natural chain unless they say otherwise; changes in a name come on top.
UniProt Q9XZ31: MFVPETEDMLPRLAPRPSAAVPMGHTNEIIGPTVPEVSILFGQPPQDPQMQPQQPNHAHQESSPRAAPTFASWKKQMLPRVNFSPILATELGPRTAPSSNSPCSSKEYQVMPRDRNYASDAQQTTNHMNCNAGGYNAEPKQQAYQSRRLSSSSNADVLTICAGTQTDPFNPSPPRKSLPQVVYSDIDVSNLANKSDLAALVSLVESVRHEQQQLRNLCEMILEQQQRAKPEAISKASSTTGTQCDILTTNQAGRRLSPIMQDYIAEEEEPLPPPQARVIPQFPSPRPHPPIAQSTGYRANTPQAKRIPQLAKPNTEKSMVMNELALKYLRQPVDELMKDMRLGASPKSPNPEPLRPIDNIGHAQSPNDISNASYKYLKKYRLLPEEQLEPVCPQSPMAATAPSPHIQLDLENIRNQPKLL

This note sets out measurements from publication PMC4229625.

Results are given in words; binding and its absence hold for the method and conditions named. Binding seen in cells or lysates may run through a third protein. Binding calls can cover weak binding; strength is not graded here.

B1: ^35S-Met-labeled Rcd4 (protein, UniProt Q9VLM6 1-199)
chain: MPHKRRNRVHANQRNFTARRVSVAKLSSAPPNVLVESCNGSHADNSSPDSPKAKEGAMTNGKNPEIKLAVPKCNTTVRKQNEAHIISNIKLDMNLNKDSNFIAPQITKKMNFAPNRVVFGVLVPLNVNDSVLVPHNRKPDALKHTSKESESCKAISEPQLADYAEKVDPMIMAVKEPVLHLDWEPGPFDFFGAYRRTYN
modifications: ^35S-methionine-labeled
Turning to B1, the binding entry in assay [1] is “no binding”.

B2: ^35S-Met-labeled Sas4 (protein, UniProt Q9VI72 1-901)
chain: MQEAGESPVGMPLSQEAIAQRLAALSRWQDEQKRLLQERQSNHRVLLGLEQRNMYKMLGLLHQETESHENSVLEEWDEEHSIQMPRLAADPDEHEPEISMADPQPAKPKRPFLRRGEGLKQRFKINPDQLRLENLPRYKFANAHPQFRTPQMKKGILKKQVKSPPNPAPPPAPKPSAQLDDLNEQRFQQMLIGKNACSSTPDLKSSYASSTTASSTSPRVRFVEQKSRAGQTTHADDEASSEASPMTGVCWAKVLDTQSIKPAQIQRRSAQIRVEDDSNVSIFELLEQKATEGNIDMNSSCIRTFMARKDQRRRVADDSDHIVVTQQVRQMRLQPQVDQMLVQELQEGDEEDTEPSSDQTLTMTPIQVGNTKVRVRFSDSNDTHEYSDATSLNDGSNIQLFEQFKSALFQALEQKKKSSPSKESDEPITKDLQEKANLVRTRLEELETEIATFKEQNAQLLRLRQQHELEKAKCTQDHMEAMERVHDEKIQAEIYLHDERMKIEEERRKFEQQMRLQKSNANSKEKKEIAALKQEVEGLQLQLKQKEQAHVSAQARLRAQLRASEKEQRNYRDEIELLRKENKRLEQELVKIGRENNSKMLQEINRNIARLAPKVLPSATMSDILDENGRRTQSLDGTAGKPAKQREAQNRRQSSGSAQVRSRSRSLSRNKKTPYALDESYASSSSVESEEVQPPVTAPKAATPPPAANSSSDFKREITNADGSKDIWYPNGNLKKISADGMNLRMLYFNKDIKETNIREGTVKYYYAETNTWHTSYLDGLEILEFPNGQTEHRRKDGTVEIHFPNNSIKIVDPSDTEKLEEWRYADGTHLVQLRNGDKILNLPNGQKEIHTKLNKRREYPDGTVKLVYPDGSQETRYSNGRVRLKDKDGKLIMDTDYAKY
modifications: ^35S-methionine-labeled
On to B2, for which the binding entry in assay [1] was “binds”.

B3: ^35S-Met-labeled Sas6 (protein, UniProt Q9VAC8 1-472)
chain: MWPPGSEDSYSAKMDYGKSVVNILPSVEMLVNFNGEMTRSSKRSCLLYAERVDFKELLQLRLTEKSDQRRMYITTVDSASFQDLKQDQSLNVSFSGFIDNVVRMLKDCQSGKLELHLTTRDQNLSSGREVHDYYLQFVEIRSFKNLVHLSLPCRSAPLNTVLFYINSMLEASHKKQYILEQSMQQMQAEINAQRAHAERLTTENTNIREALAENTRILEEKHAAEVHQYQEKLSKINEQRSNELERNRRAISGFQAQLDKASLEKAELKSAQEQAEKRCQTLSEELSCCKARVCTLKEQNDKLHGDVANIRKHERKLEYKIEDLKQHTVELQEHIQKGNKEKANIAAELEAEKKILHTKRQALEMASEEISKANQIIVKQSQELLNLKKTIAWRTEVALQQEKAVQAKESLLSLRENELREARITIEKLREEIPQQLQSMRNFAQGLEQKYSKQILILKERLAIPTGKENRR
modifications: ^35S-methionine-labeled
In the case of B3, the binding result in assay [2], in assay [3], in assay [4] and in assay [5] was “binds” each time.
